Test results published in the supplement of paper PMC10849652.
Some of the results follow.

Chains of the proteins cited; added tags and fusions are not shown. Lines headed by an entry give the natural chain unless they say otherwise; changes in a name come on top.
UniProt Q96RT8, whole entry, looked up: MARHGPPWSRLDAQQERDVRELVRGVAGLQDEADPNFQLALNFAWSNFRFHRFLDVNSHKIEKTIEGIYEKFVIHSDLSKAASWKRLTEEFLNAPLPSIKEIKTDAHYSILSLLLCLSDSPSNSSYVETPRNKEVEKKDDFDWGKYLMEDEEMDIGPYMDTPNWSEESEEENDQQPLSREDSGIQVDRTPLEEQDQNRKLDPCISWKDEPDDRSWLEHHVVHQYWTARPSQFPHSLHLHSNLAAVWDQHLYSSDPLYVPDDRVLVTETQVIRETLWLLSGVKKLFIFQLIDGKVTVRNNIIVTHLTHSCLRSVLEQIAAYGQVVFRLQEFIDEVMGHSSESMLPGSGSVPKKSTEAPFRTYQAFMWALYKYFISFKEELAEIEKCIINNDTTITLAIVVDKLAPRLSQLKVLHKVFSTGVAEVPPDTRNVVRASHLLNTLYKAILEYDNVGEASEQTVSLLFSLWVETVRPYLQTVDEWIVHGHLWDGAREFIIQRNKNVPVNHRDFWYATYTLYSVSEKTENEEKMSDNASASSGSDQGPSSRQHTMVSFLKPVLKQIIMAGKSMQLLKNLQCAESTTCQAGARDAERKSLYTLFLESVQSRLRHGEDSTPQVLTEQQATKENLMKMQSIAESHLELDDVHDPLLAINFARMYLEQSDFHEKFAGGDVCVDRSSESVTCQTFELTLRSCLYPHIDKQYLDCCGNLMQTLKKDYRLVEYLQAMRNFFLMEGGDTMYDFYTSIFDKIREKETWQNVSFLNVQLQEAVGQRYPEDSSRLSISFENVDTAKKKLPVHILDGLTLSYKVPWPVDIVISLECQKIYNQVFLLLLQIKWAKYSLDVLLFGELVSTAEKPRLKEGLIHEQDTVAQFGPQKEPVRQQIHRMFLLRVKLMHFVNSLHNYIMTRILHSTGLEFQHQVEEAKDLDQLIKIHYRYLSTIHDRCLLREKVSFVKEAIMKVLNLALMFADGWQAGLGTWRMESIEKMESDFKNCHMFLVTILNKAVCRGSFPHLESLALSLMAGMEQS
UniProt Q6PGP7, whole entry, looked up: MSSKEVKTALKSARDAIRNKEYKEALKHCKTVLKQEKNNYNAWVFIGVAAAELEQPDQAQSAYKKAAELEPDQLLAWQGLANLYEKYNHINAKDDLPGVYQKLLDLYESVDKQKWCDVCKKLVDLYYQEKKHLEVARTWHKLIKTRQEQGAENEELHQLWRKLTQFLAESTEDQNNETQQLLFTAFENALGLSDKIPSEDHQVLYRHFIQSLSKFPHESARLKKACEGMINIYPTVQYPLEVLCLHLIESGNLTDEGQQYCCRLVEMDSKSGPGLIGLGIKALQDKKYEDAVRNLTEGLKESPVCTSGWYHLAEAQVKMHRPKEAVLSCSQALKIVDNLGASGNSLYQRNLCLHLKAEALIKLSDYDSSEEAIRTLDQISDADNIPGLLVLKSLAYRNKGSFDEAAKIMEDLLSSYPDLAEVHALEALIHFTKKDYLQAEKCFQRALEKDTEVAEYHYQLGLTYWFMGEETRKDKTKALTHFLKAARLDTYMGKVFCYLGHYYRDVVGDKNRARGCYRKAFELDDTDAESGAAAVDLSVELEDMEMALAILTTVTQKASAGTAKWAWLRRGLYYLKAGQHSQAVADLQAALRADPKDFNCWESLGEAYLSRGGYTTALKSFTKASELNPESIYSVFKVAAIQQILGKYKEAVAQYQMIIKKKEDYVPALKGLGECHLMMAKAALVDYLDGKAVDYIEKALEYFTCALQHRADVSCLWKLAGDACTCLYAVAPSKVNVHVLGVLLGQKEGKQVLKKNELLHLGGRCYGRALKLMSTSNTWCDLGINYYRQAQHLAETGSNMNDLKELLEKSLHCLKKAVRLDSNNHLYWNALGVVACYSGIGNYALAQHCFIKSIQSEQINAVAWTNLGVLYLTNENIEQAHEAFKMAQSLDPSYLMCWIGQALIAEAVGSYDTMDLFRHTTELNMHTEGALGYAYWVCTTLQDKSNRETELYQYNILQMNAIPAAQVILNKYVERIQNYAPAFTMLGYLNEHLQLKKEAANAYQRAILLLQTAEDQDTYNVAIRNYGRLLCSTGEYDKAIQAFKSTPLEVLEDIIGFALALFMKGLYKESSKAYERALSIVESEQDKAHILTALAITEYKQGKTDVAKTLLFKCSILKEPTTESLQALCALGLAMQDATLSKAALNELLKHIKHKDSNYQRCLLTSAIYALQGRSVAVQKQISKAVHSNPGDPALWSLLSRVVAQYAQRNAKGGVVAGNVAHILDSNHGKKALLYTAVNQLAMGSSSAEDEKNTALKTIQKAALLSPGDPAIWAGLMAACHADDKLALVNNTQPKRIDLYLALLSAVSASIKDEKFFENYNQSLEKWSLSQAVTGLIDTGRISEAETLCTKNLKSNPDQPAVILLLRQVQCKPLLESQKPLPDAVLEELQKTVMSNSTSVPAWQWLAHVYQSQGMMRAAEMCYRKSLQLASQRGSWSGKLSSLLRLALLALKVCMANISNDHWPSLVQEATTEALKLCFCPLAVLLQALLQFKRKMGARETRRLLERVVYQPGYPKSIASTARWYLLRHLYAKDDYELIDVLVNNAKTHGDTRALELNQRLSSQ
UniProt Q3B726, whole entry, looked up: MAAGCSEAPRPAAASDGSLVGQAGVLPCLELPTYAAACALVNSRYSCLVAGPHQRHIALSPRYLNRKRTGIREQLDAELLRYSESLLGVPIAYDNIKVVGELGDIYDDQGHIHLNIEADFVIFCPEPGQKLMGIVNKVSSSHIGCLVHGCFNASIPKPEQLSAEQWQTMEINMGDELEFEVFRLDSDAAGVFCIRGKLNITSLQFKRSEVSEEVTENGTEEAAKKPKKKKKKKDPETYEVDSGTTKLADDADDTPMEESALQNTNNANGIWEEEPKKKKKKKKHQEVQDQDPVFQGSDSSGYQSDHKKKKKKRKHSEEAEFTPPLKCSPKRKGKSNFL
UniProt Q16881, whole entry, looked up: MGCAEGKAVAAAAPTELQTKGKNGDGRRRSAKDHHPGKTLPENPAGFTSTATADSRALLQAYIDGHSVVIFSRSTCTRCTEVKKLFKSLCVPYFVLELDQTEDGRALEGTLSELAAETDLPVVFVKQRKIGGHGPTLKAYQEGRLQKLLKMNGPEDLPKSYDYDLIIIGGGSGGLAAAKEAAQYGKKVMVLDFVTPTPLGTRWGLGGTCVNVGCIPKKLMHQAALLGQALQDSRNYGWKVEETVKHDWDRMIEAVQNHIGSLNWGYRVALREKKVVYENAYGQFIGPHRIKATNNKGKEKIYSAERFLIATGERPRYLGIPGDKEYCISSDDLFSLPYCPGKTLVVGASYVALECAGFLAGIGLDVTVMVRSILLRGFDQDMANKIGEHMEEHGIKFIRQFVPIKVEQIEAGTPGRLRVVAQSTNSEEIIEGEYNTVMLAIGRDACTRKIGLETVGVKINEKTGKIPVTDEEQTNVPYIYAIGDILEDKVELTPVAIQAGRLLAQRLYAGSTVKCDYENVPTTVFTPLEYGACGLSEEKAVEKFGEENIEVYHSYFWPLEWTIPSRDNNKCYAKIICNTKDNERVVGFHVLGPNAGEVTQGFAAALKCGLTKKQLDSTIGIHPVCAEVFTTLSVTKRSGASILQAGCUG
UniProt Q7Z4L5: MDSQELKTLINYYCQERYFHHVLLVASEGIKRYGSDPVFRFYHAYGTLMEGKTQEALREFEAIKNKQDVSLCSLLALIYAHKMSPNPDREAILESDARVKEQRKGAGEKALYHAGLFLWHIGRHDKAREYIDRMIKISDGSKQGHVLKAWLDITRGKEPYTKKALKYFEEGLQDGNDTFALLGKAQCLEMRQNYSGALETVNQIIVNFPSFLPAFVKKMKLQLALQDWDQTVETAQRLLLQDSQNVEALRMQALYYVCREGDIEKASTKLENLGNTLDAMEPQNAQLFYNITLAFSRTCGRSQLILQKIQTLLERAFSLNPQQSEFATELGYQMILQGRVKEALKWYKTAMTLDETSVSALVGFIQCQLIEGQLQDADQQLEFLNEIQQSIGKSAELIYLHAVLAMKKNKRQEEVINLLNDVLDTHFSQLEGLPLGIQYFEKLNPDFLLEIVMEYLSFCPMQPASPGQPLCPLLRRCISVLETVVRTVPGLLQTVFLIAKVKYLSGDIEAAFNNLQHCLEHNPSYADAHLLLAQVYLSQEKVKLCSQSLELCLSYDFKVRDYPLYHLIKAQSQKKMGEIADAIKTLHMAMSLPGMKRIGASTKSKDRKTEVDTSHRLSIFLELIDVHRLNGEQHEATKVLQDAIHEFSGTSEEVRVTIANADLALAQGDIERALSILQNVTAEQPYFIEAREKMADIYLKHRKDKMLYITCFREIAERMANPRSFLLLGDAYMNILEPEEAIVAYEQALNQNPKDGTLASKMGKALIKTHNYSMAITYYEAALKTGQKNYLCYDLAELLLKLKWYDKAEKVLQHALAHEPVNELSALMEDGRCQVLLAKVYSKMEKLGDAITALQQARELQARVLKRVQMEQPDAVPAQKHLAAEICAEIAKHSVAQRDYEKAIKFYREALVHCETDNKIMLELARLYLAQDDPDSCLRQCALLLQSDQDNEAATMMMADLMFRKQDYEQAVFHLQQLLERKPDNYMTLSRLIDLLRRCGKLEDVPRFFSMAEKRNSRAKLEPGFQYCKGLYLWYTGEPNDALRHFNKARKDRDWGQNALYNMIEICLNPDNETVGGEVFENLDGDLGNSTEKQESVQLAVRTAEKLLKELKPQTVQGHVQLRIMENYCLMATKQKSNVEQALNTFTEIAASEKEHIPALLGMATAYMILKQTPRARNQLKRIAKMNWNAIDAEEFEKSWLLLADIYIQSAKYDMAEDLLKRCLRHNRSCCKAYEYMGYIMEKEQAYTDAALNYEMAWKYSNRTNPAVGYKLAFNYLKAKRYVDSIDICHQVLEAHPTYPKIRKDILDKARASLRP
UniProt Q12999: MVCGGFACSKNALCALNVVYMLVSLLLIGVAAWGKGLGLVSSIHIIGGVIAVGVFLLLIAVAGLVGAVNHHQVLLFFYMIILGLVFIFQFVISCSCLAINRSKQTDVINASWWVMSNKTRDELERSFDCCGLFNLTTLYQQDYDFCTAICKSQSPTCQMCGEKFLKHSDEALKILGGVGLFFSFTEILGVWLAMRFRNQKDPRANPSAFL
UniProt Q96AE7: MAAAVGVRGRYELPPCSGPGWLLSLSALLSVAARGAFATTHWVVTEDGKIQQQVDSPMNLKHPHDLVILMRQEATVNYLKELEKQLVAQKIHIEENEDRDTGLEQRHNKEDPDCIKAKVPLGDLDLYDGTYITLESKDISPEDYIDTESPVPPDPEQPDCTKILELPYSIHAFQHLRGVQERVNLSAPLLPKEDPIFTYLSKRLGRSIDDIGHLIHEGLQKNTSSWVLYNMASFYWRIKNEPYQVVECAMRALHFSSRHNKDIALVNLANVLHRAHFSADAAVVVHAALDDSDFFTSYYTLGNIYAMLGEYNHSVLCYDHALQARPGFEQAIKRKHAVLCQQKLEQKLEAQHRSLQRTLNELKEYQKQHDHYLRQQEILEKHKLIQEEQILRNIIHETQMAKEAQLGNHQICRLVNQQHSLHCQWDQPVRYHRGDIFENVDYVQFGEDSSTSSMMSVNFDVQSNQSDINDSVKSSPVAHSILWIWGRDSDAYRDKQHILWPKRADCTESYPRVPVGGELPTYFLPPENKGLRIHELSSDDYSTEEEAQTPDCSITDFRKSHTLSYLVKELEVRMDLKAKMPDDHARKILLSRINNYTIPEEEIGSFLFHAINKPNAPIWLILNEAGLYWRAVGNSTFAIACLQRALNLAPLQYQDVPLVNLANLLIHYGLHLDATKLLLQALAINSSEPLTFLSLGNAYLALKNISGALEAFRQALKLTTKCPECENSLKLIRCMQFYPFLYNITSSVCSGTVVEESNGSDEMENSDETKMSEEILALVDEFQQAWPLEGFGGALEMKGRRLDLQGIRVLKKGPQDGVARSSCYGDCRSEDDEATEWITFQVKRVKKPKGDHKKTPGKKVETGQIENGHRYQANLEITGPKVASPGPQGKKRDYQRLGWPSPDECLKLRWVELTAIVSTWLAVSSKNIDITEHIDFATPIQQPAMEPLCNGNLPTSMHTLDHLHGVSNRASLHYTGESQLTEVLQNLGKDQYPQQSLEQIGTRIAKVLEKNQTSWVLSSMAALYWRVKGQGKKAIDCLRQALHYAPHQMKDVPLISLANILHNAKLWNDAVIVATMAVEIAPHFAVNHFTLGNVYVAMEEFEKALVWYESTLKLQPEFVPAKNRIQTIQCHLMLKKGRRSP
UniProt A2RUC4: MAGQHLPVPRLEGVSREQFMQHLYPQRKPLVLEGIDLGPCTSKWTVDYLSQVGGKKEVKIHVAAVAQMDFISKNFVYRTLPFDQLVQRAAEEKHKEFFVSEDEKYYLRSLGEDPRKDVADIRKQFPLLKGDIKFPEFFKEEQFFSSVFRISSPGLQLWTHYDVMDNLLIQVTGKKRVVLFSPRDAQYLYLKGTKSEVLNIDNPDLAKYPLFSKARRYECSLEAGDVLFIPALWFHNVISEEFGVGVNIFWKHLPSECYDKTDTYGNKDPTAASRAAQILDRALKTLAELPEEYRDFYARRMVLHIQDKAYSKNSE

compound: CN(CCOC1=CC=C(C=C1)C[C@H]2C(=O)NC(=O)S2)C3=CC=CC=N3 (racemic) [rosiglitazone]; assay: log2 fold change, soluble protein after heating vs DMSO (PISA); higher = thermal stabilisation; K562 cells, 10 uM, 30 min; active = over 0.2 and 3.5 SD of the protein, either way, in both replicates (recomputed)
Procedure, shortened: (§1)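 K562 cells at 2×10^6 cells/mL were exposed to 10 μM compound for 30 min, then aliquots were heated for 3 min across 48°C-58°C, pooled, and extracted in PBS containing 0.5% NP-40 at 4°C. The supernatant after 21,000xg for 90 min was taken as soluble protein and measured by TMTpro 16plex LC-MS/MS with channel sums equalised. Thermal stability is reported relative to control samples, with values from duplicates. Fold changes are given on a log2 scale.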

Target	log2 fold change
TTC14 (UniProt Q96N46)	inactive: -0.093
TYRO3 (UniProt Q06418)	inactive: 0.039
TUT1 (UniProt Q9H6E5)	inactive: 0.011
TSPAN4 (UniProt O14817)	inactive: -0.009
TYK2 (UniProt P29597)	inactive: -0.138
TUBGCP5 (UniProt Q96RT8)	inactive: 0.001
TWNK (UniProt Q96RR1)	inactive: -0.047
TTC37 (UniProt Q6PGP7)	inactive: 0
TWISTNB (UniProt Q3B726)	inactive: 0.074
TUSC2 (UniProt O75896)	inactive: 0.019

compound: CN1C2=C(C3=C1C(=O)N(N=C3)CC4=CC(=CC=C4)N)SC(=C2)S(=O)C; assay: as above
Procedure, shortened: as §1

Target	log2 fold change
UBE2J2 isoform 3 (UniProt Q8N2K1)	inactive: -0.055
TVP23C (UniProt Q96ET8)	inactive: 0
TYK2 (UniProt P29597)	inactive: 0.139
TXNRD1 isoform 7 (UniProt Q16881)	inactive: 0.101
U2AF1L5 (UniProt P0DN76)	inactive: 0.112
TWISTNB (UniProt Q3B726)	inactive: 0.081
TTC21B (UniProt Q7Z4L5)	inactive: 0.059
TSPAN31 (UniProt Q12999)	inactive: -0.045
TST (UniProt Q16762)	inactive: 0.029
TUBA4A (UniProt C9JJQ8)	inactive: 0.114

compound: CN1CCC(CNc2ccc3ncc(-c4cccc(OC(F)(F)F)c4)n3n2)CC1; assay: as above
Procedure, shortened: as §1

Target	log2 fold change
UBE2J2 isoform 3 (UniProt Q8N2K1)	inactive: 0.122
TVP23C (UniProt Q96ET8)	inactive: -0.033
TUT7 (UniProt Q5VYS8)	inactive: 0.43
TTC17 isoform 2 (UniProt Q96AE7)	inactive: 0.042
UBAP2L (UniProt F8W726)	inactive: -0.027
TYW5 (UniProt A2RUC4)	inactive: -0.061
TXNRD1 isoform 7 (UniProt Q16881)	inactive: -0.028
TUBGCP5 (UniProt Q96RT8)	inactive: -0.107
TWISTNB (UniProt Q3B726)	inactive: 0.238
